Results taken from the supplement of paper PMC10849652.
The list shows a part of the results.

By UniProt entry, the sequences of proteins in these tests, tags left out. Where a name states a change or a piece, a line headed by the entry shows the natural chain unless it says otherwise.
UniProt Q9H6U6: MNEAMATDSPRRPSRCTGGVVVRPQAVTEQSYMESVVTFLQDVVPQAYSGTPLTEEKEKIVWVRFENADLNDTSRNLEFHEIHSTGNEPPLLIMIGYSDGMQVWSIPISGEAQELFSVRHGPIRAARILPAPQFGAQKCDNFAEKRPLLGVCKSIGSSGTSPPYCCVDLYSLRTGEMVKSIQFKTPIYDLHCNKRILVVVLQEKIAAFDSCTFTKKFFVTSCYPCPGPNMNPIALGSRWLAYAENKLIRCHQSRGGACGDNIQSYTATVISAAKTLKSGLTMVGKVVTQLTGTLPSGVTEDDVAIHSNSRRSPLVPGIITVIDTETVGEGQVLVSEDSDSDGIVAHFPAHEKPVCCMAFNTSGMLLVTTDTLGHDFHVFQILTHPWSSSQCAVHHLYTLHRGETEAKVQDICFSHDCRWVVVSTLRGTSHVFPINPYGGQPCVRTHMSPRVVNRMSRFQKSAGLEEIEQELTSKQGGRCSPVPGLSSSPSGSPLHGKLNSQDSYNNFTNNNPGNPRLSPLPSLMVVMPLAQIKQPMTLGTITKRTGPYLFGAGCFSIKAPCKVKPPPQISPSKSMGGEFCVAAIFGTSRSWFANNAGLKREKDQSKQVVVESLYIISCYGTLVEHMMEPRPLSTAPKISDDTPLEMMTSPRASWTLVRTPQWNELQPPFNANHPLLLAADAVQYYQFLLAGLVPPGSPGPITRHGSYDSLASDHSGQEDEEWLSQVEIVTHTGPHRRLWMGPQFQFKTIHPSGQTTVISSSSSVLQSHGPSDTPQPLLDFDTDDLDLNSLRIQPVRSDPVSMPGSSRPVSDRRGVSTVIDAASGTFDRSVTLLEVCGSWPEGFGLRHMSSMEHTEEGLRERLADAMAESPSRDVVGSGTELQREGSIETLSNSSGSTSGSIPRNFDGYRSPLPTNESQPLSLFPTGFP
UniProt Q9NYF8, whole entry, looked up: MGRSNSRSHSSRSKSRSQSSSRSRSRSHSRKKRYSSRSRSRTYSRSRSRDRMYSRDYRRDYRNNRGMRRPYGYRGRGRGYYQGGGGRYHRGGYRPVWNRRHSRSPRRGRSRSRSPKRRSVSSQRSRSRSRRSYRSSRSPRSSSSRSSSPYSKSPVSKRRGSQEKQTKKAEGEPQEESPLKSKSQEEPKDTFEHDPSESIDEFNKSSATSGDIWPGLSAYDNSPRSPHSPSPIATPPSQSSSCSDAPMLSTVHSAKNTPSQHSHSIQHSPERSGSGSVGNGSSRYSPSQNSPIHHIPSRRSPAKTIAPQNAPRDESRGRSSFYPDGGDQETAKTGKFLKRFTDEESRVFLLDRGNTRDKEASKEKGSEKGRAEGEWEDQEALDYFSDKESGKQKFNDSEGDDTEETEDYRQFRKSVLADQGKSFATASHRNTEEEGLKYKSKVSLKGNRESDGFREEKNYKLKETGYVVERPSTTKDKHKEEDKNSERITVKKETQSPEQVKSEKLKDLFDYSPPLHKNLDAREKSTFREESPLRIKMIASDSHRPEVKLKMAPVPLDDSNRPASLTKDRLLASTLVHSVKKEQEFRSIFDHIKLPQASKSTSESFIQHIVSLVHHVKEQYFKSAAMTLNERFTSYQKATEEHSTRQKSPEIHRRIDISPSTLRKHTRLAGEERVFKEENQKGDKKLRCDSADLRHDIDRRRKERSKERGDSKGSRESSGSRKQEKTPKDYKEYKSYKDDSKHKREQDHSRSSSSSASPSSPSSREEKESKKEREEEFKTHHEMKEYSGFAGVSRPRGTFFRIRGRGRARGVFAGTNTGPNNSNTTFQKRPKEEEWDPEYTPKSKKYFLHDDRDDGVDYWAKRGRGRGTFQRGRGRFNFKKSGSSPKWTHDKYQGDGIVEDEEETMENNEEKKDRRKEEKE
UniProt Q9NW68: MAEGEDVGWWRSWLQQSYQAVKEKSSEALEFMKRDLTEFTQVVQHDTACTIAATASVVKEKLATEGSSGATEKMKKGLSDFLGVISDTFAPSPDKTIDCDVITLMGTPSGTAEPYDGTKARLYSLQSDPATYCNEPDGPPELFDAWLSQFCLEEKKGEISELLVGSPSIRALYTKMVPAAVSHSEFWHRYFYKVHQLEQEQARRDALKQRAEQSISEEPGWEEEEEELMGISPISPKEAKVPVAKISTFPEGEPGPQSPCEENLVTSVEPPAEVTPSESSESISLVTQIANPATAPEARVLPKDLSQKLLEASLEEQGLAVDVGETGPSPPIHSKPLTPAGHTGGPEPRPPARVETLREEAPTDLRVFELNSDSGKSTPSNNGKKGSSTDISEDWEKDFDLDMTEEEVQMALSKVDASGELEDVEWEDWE
UniProt Q9UL15: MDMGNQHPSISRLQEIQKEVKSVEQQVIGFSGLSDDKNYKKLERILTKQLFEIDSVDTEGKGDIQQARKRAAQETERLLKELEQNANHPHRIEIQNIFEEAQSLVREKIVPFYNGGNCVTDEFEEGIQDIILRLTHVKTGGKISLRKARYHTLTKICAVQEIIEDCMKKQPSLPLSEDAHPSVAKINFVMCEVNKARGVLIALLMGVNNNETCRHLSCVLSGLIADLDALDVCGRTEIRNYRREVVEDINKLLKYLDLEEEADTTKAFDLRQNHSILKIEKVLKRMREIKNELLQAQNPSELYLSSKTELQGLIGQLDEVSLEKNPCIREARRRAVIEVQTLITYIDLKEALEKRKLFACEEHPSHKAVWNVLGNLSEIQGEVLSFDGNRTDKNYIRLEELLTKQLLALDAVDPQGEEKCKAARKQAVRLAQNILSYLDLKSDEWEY
UniProt Q4VC05, whole entry, looked up: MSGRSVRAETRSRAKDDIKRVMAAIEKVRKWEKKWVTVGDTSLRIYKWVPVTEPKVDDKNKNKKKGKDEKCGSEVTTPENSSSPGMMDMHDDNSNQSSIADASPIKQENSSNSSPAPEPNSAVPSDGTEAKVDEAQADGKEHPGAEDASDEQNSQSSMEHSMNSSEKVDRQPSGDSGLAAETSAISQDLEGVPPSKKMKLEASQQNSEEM
UniProt Q99933: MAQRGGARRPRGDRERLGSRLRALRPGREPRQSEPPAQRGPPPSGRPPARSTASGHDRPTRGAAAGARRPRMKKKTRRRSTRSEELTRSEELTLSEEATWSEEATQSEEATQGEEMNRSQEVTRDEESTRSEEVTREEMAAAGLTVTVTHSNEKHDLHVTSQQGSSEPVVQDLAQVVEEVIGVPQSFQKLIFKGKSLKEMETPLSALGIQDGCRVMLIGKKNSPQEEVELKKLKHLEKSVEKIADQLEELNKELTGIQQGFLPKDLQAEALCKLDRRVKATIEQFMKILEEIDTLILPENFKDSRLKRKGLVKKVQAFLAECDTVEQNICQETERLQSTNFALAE
UniProt P12694: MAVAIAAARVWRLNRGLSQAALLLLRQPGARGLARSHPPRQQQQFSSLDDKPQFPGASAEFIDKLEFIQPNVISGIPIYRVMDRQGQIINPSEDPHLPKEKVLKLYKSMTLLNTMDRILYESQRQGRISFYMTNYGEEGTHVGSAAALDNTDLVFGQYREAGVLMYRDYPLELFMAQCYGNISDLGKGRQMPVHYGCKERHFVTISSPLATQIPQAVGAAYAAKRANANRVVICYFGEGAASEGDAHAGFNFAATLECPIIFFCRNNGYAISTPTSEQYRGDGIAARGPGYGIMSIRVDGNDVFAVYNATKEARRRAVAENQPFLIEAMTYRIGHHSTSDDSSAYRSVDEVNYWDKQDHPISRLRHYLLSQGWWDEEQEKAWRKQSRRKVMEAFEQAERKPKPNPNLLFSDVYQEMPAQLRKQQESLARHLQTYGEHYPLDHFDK
UniProt Q92560: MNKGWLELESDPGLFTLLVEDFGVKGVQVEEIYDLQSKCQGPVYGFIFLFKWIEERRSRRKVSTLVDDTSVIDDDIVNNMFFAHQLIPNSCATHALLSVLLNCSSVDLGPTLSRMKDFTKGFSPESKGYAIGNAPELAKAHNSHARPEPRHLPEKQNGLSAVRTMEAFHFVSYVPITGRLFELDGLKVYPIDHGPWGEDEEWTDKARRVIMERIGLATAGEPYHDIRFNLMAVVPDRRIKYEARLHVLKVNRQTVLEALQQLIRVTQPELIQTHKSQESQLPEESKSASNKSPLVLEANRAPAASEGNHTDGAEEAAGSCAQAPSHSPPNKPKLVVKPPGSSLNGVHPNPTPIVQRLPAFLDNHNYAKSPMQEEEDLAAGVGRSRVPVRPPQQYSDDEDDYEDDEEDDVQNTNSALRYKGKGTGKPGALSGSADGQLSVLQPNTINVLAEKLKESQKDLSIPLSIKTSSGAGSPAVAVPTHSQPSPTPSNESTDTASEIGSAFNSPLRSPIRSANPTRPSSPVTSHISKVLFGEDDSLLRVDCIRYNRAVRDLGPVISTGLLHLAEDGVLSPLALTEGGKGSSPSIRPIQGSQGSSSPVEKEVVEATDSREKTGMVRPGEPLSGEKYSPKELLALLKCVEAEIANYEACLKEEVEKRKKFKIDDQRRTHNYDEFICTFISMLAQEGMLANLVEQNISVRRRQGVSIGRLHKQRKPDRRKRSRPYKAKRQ
UniProt Q8WY22: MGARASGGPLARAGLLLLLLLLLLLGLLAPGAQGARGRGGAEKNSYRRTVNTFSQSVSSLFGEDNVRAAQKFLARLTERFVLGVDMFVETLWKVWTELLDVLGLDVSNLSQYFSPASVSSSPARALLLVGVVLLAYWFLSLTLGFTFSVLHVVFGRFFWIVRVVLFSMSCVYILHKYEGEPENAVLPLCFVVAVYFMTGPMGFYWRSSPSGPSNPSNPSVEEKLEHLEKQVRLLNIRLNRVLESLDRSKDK
UniProt O14981: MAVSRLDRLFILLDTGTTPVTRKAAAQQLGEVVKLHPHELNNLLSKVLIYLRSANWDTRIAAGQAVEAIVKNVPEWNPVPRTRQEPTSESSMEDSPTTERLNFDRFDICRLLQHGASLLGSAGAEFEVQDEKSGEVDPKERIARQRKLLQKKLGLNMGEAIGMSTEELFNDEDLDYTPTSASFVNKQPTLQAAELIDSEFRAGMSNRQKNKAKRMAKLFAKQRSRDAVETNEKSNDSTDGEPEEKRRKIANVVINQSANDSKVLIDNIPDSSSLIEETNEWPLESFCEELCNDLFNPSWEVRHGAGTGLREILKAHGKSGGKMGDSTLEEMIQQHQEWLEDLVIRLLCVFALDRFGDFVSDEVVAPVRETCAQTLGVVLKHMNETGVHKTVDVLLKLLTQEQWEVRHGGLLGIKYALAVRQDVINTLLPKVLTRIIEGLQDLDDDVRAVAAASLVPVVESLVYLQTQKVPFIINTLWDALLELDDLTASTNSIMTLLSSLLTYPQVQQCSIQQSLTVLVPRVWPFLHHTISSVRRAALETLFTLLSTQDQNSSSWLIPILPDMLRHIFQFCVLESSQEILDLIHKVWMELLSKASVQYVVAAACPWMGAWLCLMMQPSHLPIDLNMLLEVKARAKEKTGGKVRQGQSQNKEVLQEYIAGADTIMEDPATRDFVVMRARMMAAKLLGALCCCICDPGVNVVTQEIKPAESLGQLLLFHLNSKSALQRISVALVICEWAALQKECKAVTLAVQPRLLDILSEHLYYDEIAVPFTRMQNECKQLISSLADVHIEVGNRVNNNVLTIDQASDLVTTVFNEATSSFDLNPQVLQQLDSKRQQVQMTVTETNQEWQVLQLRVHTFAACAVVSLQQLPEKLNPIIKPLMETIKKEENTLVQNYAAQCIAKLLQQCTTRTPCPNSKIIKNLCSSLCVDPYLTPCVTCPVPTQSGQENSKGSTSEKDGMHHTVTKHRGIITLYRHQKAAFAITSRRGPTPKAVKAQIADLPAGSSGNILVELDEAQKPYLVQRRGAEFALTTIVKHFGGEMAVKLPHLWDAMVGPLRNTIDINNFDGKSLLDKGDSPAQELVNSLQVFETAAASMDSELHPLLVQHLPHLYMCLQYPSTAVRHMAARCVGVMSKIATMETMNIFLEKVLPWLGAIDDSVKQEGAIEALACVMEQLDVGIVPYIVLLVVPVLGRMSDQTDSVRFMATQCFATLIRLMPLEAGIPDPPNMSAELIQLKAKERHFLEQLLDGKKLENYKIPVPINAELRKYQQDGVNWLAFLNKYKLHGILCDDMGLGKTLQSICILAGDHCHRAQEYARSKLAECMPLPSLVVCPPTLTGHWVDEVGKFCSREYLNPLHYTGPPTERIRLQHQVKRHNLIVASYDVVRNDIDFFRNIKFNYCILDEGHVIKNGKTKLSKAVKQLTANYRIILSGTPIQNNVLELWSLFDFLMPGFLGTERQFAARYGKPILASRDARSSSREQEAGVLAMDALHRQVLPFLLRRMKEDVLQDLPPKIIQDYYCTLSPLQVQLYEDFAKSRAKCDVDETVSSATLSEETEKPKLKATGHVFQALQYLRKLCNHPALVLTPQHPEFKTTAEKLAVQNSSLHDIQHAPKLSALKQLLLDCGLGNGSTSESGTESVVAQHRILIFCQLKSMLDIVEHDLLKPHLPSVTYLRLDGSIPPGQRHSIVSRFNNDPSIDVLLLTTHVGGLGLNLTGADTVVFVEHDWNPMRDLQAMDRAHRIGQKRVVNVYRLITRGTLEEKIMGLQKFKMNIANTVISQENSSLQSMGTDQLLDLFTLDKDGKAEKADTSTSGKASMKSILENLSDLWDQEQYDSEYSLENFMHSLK

Key:
Assay in all cases: log2 fold change, soluble protein after heating vs DMSO (PISA); higher = thermal stabilisation; K562 lysate, 10 uM; active = over 0.2 and 3.5 SD of the protein, either way, in both replicates (recomputed)
erlotinib = compound: C#Cc1cccc(Nc2ncnc3cc(OCCOC)c(OCCOC)cc23)c1 [erlotinib]
In short: (§1)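 The values are log-two fold changes in thermal stability compared with solvent controls and come from duplicates. They were obtained by TMTpro 16plex LC-MS/MS, with channel sums equalised, on the supernatant after 21,000xg for 90 min. That supernatant came from crude K562 extract at 1 mg/mL protein treated with 10 μM compound for 30 min, heated for 3 min across 48°C-58°C, pooled and brought to 0.5% NP-40 at 4°C.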

[1] = compound: C/C(=N\NC(=O)C1=CC(=CC=C1)S(=O)(=O)N2CCOCC2)/C3=C(C=CC(=C3)Cl)O
In short: as §1

[2] = compound: C1=CC(=CC=C1C2=NC3=C(N2)C=C(C=C3)C(=O)N)OC4=CC=C(C=C4)Cl
In short: as §1

[3] = compound: C1=CC2=C(C=CC(=C2)/C=C\3/C(=O)NC(=NCC4=CC=CS4)S3)N=C1
In short: as §1

[4] = compound: C1=CC2=NC=CN=C2C=C1/C=C/3\C(=O)NC(=O)S3
In short: as §1

[5] = compound: C1=CC=C(C=C1)C2=NC(=C(N2)C3=CC=NC=C3)C4=CC(=C(C=C4)Cl)O
In short: as §1

[6] = compound: C1=CC=C2C(=C1)C3=NNC4=CC=CC(=C43)C2=O
In short: as §1

[7] = compound: C1CCN(C1)C(=O)NC2=CC=CC(=C2)NC3=NC=C(C(=N3)NCCC4=CN=CN4)Br
In short: as §1

[8] = compound: C1CN(CCC1(CC2=CC=C(C=C2)Cl)N)C3=NC=NC4=C3C=CN4
In short: as §1

IRAK-1-4 Inhibitor I = compound: C1COCCN1CCN2C3=CC=CC=C3N=C2NC(=O)C4=CC(=CC=C4)[N+](=O)[O-] [IRAK-1-4 Inhibitor I]
In short: as §1

Measured: log2 fold change

BANF1 (UniProt O75531)
inactive: erlotinib 0.069 | [1] -0.016 | [2] -0.035 | [3] -0.105 | [4] -0.03 | [5] 0.036 | [6] -0.069 | [7] 0 | [8] -0.016 | IRAK-1-4 Inhibitor I -0.02

BCAS3 isoform 8 (UniProt Q9H6U6)
inactive: erlotinib -0.04 | [1] 0.107 | [2] 0.054 | [3] -0.122 | [4] -0.012 | [5] 0.011 | [6] -0.058 | [7] -0.14 | [8] -0.14 | IRAK-1-4 Inhibitor I 0.018

BCLAF1 (UniProt Q9NYF8)
inactive: erlotinib 0.032 | [1] 0.026 | [2] 0.022 | [3] 0.007 | [4] -0.02 | [5] 0.017 | [6] 0 | [7] 0.01 | [8] 0.03 | IRAK-1-4 Inhibitor I 0.002

BRCC3 (UniProt P46736)
inactive: erlotinib -0.008 | [1] 0.122 | [2] 0.041 | [3] -0.054 | [4] 0.003 | [5] 0.013 | [6] 0.054 | [7] -0.035 | [8] -0.054 | IRAK-1-4 Inhibitor I -0.041

BPGM (UniProt P07738)
inactive: erlotinib -0.03 | [1] 0.016 | [2] 0.073 | [3] 0.002 | [4] -0.022 | [5] -0.061 | [6] -0.066 | [7] 0.071 | [8] -0.041 | IRAK-1-4 Inhibitor I 0

BSDC1 (UniProt Q9NW68)
inactive: erlotinib -0.002 | [1] 0.01 | [2] -0.039 | [3] 0.046 | [4] -0.025 | [5] -0.024 | [6] 0.036 | [7] -0.029 | [8] 0 | IRAK-1-4 Inhibitor I 0.059

BCS1L (UniProt Q9Y276)
inactive: erlotinib 0.029 | [1] 0.186 | [2] -0.137 | [3] 0.035 | [4] 0.036 | [5] -0.161 | [6] -0.093 | [7] -0.06 | [8] -0.034 | IRAK-1-4 Inhibitor I 0.044

BAG5 isoform 2 (UniProt Q9UL15)
inactive: erlotinib 0.031 | [1] 0 | [2] 0.019 | [3] -0.068 | [4] -0.013 | [5] -0.001 | [6] 0.027 | [7] -0.012 | [8] -0.016 | IRAK-1-4 Inhibitor I 0.01

BRAT1 (UniProt Q6PJG6)
inactive: erlotinib 0.05 | [1] -0.01 | [2] -0.052 | [3] 0.006 | [4] 0.026 | [5] 0.03 | [6] -0.075 | [7] 0.003 | [8] -0.013 | IRAK-1-4 Inhibitor I -0.013

BAIAP2 (UniProt Q9UQB8)
inactive: erlotinib 0 | [1] 0.083 | [2] 0.044 | [3] -0.01 | [4] -0.027 | [5] 0.011 | [6] 0 | [7] -0.03 | [8] -0.016 | IRAK-1-4 Inhibitor I 0

BCL7A isoform 2 (UniProt Q4VC05)
inactive: erlotinib -0.018 | [1] 0.002 | [2] 0.021 | [3] -0.012 | [4] 0.045 | [5] 0.014 | [6] 0.003 | [7] 0.095 | [8] 0.013 | IRAK-1-4 Inhibitor I -0.05

Copied from the listing (six entries):
BCLAF1 (UniProt Q9NYF8)
inactive: erlotinib 0.032 | [1] 0.026 | [2] 0.022 | [3] 0.007 | [4] -0.02 | [5] 0.017 | [6] 0 | [7] 0.01 | [8] 0.03 | IRAK-1-4 Inhibitor I 0.002

BRCC3 (UniProt P46736)
inactive: erlotinib -0.008 | [1] 0.122 | [2] 0.041 | [3] -0.054 | [4] 0.003 | [5] 0.013 | [6] 0.054 | [7] -0.035 | [8] -0.054 | IRAK-1-4 Inhibitor I -0.041

BPGM (UniProt P07738)
inactive: erlotinib -0.03 | [1] 0.016 | [2] 0.073 | [3] 0.002 | [4] -0.022 | [5] -0.061 | [6] -0.066 | [7] 0.071 | [8] -0.041 | IRAK-1-4 Inhibitor I 0

BSDC1 (UniProt Q9NW68)
inactive: erlotinib -0.002 | [1] 0.01 | [2] -0.039 | [3] 0.046 | [4] -0.025 | [5] -0.024 | [6] 0.036 | [7] -0.029 | [8] 0 | IRAK-1-4 Inhibitor I 0.059

BCS1L (UniProt Q9Y276)
inactive: erlotinib 0.029 | [1] 0.186 | [2] -0.137 | [3] 0.035 | [4] 0.036 | [5] -0.161 | [6] -0.093 | [7] -0.06 | [8] -0.034 | IRAK-1-4 Inhibitor I 0.044

BAG5 isoform 2 (UniProt Q9UL15)
inactive: erlotinib 0.031 | [1] 0 | [2] 0.019 | [3] -0.068 | [4] -0.013 | [5] -0.001 | [6] 0.027 | [7] -0.012 | [8] -0.016 | IRAK-1-4 Inhibitor I 0.01

Carrying on.

BCCIP (UniProt Q9P287)
inactive: erlotinib -0.012 | [1] -0.005 | [2] 0 | [3] 0.027 | [4] 0.007 | [5] 0.007 | [6] 0.011 | [7] 0.024 | [8] 0.006 | IRAK-1-4 Inhibitor I 0.006

BAG6 isoform 3 (UniProt P46379)
inactive: erlotinib -0.003 | [1] 0.005 | [2] -0.053 | [3] 0.029 | [4] 0 | [5] -0.011 | [6] 0.034 | [7] 0.02 | [8] 0.005 | IRAK-1-4 Inhibitor I 0.006

BET1 (UniProt O15155)
inactive: erlotinib 0.025 | [1] -0.092 | [2] -0.059 | [3] 0.033 | [4] 0.08 | [5] 0.033 | [6] -0.015 | [7] 0.039 | [8] 0.018 | IRAK-1-4 Inhibitor I 0.006

BOP1 (UniProt Q14137)
inactive: erlotinib 0.011 | [1] -0.027 | [2] 0.022 | [3] -0.001 | [4] -0.005 | [5] -0.002 | [6] -0.04 | [7] -0.002 | [8] 0.006 | IRAK-1-4 Inhibitor I -0.031

BRD4 (UniProt O60885)
inactive: erlotinib -0.001 | [1] -0.011 | [2] 0.059 | [3] 0.013 | [4] -0.007 | [5] 0.05 | [6] -0.061 | [7] -0.016 | [8] 0.032 | IRAK-1-4 Inhibitor I 0.028

BTBD6 (UniProt Q96KE9)
inactive: erlotinib 0.135 | [1] 0.08 | [2] 0.14 | [3] -0.09 | [4] -0.077 | [5] 0.114 | [6] -0.168 | [7] -0.042 | [8] 0.168 | IRAK-1-4 Inhibitor I 0.208

BCL2L13 (UniProt Q9BXK5)
inactive: erlotinib 0.018 | [1] -0.052 | [2] 0.025 | [3] 0.052 | [4] 0.033 | [5] -0.027 | [6] -0.099 | [7] -0.016 | [8] 0.044 | IRAK-1-4 Inhibitor I 0.024

BORCS5 (UniProt Q969J3)
inactive: erlotinib -0.014 | [1] -0.027 | [2] 0.016 | [3] 0.015 | [4] -0.036 | [5] -0.017 | [6] -0.012 | [7] 0.029 | [8] 0.128 | IRAK-1-4 Inhibitor I 0.004

BAG1 (UniProt Q99933)
inactive: erlotinib -0.031 | [1] 0.009 | [2] 0.019 | [3] -0.017 | [4] -0.024 | [5] 0.006 | [6] 0.11 | [7] 0.019 | [8] 0.011 | IRAK-1-4 Inhibitor I 0.017

BCL7B (UniProt Q9BQE9)
inactive: erlotinib -0.062 | [1] 0.243 | [2] 0.082 | [3] -0.022 | [4] 0.055 | [5] 0.036 | [6] 0.132 | [7] -0.124 | [8] 0.036 | IRAK-1-4 Inhibitor I -0.08

BCKDHA (UniProt P12694)
inactive: erlotinib 0.007 | [1] 0.019 | [2] -0.007 | [3] 0.043 | [4] 0.128 | [5] 0.016 | [6] -0.107 | [7] -0.03 | [8] 0.089 | IRAK-1-4 Inhibitor I 0.057

BCCIP isoform 2 (UniProt Q9P287)
inactive: erlotinib -0.012 | [1] -0.007 | [2] -0.016 | [3] 0.011 | [4] 0.014 | [5] 0.017 | [6] 0.036 | [7] 0.072 | [8] -0.028 | IRAK-1-4 Inhibitor I -0.003

BAP1 (UniProt Q92560)
inactive: erlotinib -0.02 | [1] -0.034 | [2] 0.031 | [3] -0.014 | [4] -0.028 | [5] -0.02 | [6] 0.026 | [7] 0.026 | [8] 0.001 | IRAK-1-4 Inhibitor I 0.009

BCL2L2 isoform 2 (UniProt Q92843)
inactive: erlotinib 0.009 | [1] -0.051 | [2] -0.046 | [3] 0.025 | [4] -0.029 | [5] 0.019 | [6] 0.016 | [7] 0.039 | [8] 0.012 | IRAK-1-4 Inhibitor I 0.009

BRI3BP (UniProt Q8WY22)
inactive: erlotinib 0.049 | [1] 0.106 | [2] 0.077 | [3] -0.009 | [4] 0.047 | [5] -0.029 | [6] -0.11 | [7] 0.108 | [8] 0.103 | IRAK-1-4 Inhibitor I -0.074

BTAF1 (UniProt O14981)
inactive: erlotinib 0.044 | [1] -0.035 | [2] -0.01 | [3] -0.002 | [4] -0.003 | [5] 0.002 | [6] 0.002 | [7] -0.017 | [8] 0.022 | IRAK-1-4 Inhibitor I -0.034
